Test results: patent US12544431B2 (BCN PEPTIDES, S.A., priority 2019, dated 2026)

Assay: general procedure: Fmoc solid-phase peptide synthesis
Conditions: oxidative folding step

Q: With “(Pyr-Lys-Arg-Asp-Ser-Ser-Asn-Ser-Cys-Asp-Leu-Pro-Glu-Msa-Lys-NH2)2 (disulfide bridge)” as the substance, how does the oxidative folding yield read?
A: 81% yield
